Data source: PubChem BioAssay AID1259268 (Sanger Institute, 2017)
In all, the deposit lists 160 reagents; below is a random part of them. 58 of them (36%) were called active. 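Trametinib by itself roughly halved viability, making its arm harsher than the cetuximab and BYL719 arms.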 Entries without a mark were called inactive. The numbers tell different reagents against one gene apart. No viability above 1 is reported: the scale is capped. The record does not give: the amount of reagent, the time to read-out.

Screen: 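Kinase knock-downs that boost killing of colorectal cancer cells by targeted drugs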 (follow-up of hits)
Cells: human SNUC1 colorectal cancer cells
Reagent: single siRNA against human genes
Conditions: anchor drugs added a day after transfection: BYL719 1 µM, cetuximab 5 µg/ml or trametinib 10 nM, versus DMSO vehicle
Detection: 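Replicate-averaged viability as a fraction of the non-targeting control, and a score of how far knock-down plus drug exceeds their separate effects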
Scale: synergy score with trametinib and synergy score with cetuximab and synergy score with BYL719: higher = stronger synergy of knock-down with drug; viability without drug (DMSO) and viability with trametinib: higher = more viable cells
Active means: 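Inactive when no drug gives a synergy score over 0.1, otherwise active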
Meaning of the calls: active = synergy with at least one drug; inactive = no synergy with any drug

target,reagent,synergy score with trametinib,synergy score with cetuximab,synergy score with BYL719,viability without drug (DMSO) (fraction of control),viability with trametinib (fraction of control)
CHD4,1,-0.0142,-0.0365,-0.161,0.54,0.281
CHD4,2,0.0278,-0.0432,-0.0105,0.609,0.273
CHD4,3,0.0401,-0.0841,-0.11,0.857,0.383
CHD4,4,0.137 (active),0.104,-0.0698,0.959,0.337
MAP3K8,1,-0.00401,-0.0135,-0.23,1,0.498
MAP3K8,2,0.0336,0.0223,0.00383,0.883,0.403
MAP3K8,3,0.0165 (active),0.105,-0.232,0.944,0.45
MAP3K8,4,0.0645,0.0341,-0.103,0.779,0.321
BMPR2,1,0.122 (active),-0.0406,-0.285,0.929,0.337
BMPR2,2,0.13 (active),0.0441,-0.0442,1,0.364
BMPR2,3,0.0552,-0.0663,-0.175,1,0.439
BMPR2,4,-0.104,-0.0663,-0.23,1,0.598
KCNH8,1,0.128 (active),-0.0214,0.0893,0.865,0.3
KCNH8,2,0.13 (active),-0.104,-0.133,0.605,0.168
KCNH8,3,0.0737 (active),0.154,-0.0173,0.926,0.384
KCNH8,4,0.134 (active),0.0301,-0.119,0.895,0.308
SF3B1,1,-0.249 (active),0.126,-0.0695,0.56,0.525
SF3B1,2,-0.165,-0.0193,-0.0619,0.344,0.335
SF3B1,3,-0.108,-0.0104,-0.144,0.435,0.323
SF3B1,4,-0.233,-0.15,-0.0787,0.343,0.403
